# Data published in patent US20250019341A1, “COMPOUNDS AND METHOD OF USE THEREOF FOR TREATING BACTERIAL DISEASES” (PEKING UNIVERSITY, priority 2021, published 2025).
# Assay: Quantification of erucamide in Arabidopsis leaves (GC-MS/MS)
# Details: faah mutants
structure (smiles),measurement,value
"CCCCCCCC/C=C\CCCCCCCCCCCC(N)=O (single isomer, unassigned) [Compound T3SI-1, erucamide]",more erucamide than in Col-0,40%
